Tested on: wild-type mice
Assay: Wild-type mice treated with dynasore (organ pathology, coronary artery histology, TβR-II staining, plasma cholesterol)
Type: in vivo
Details: dynasore 1 mg/kg every two days for 8 weeks, indirect immunofluorescent staining
Description: Wild-type and ApoE-null mice were treated with vehicle only (a, c) or 1 mg/kg dynasore (b, d) every two days for 8 weeks. The coronary arteries were removed from the animals and subjected to histological analysis by H & E staining (A) and indirect immunofluorescent staining for TβR-II(B). The asterisk (*) indicates the location of the lumen in coronary arteries. The arrow indicates the immunofluorescent staining of TβR-II in the aortic endothelium.
We hypothesize that TGF-β enhancers such as inhibitors of clathrin-dependent endocytosis may ameliorate atherosclerosis caused by cholesterol-induced suppression of TGF-β responsiveness in vascular cells^3,12. To test our hypothesis, we treated hypercholesterolemic ApoE-null mice with dynasore (1 mg/kg body weight) via intraperitoneal administration every two days for 8 weeks. We chose dynasore for two reasons. […] At 50 μM, it enhances TGF-β-stimulated expression of PAI-1 in these cell types by ˜4-5 fold, 2) Dynasore is the only inhibitor tested which alone is capable of stimulating PAI-1 expression. […] The plasma levels of cholesterol in wild-type mice treated with either vehicle only or dynasore were 120±10 and 125±20 mg/dl, respectively.
However, no TβR-II staining was found in the aortic endothelium and smooth muscle of coronary arteries in ApoE-null mice treated with vehicle only (FIG. 4Bc).

O=C(N/N=C/c1ccc(O)c(O)c1)c1cc2ccccc2cc1O [dynasore] was tested, and the “TβR-II staining of coronary arteries” value was “staining was found in the aortic endothelium as well as in the smooth muscle of coronary arteries”.

— US8487006B2, “Method of enhancing TGF-β signalling” (Auxagen, Inc., priority 2008, dated 2013)
